# Literature values, collected in patent US20260295059A1, “BROAD-SPECTRUM ANTIBIOTIC HYBRIDS FOR THE TREATMENT OF MULTI-DRUG RESISTANT INFECTIONS” (priority 2023, published 2026).
# At least one peptide structure holds a part that was inferred or is arguable (an end, a ring closure or a residue).
# System: S aureus
# Conditions: cited from earlier work
structure (smiles),measurement,setting,value
CC[C@H](C)[C@H](NC(=O)[C@@H](Cc1ccccc1)NC)C(=O)N[C@@H](CO)C(=O)N[C@H](CCC(N)=O)C(=O)N[C@@H](C(=O)N[C@H](C(=O)N[C@@H](CO)C(=O)N[C@H]1C(=O)N[C@@H](C)C(=O)N[C@@H](CCCNC(=N)N)C(=O)N[C@@H]([C@@H](C)CC)C(=O)O[C@H]1C)[C@@H](C)CC)[C@@H](C)CC [Arg10-teixobactin],increase in MIC on serial passaging,"S. aureus, 75 days",2.4 fold
same,"magnitude of evolved resistance, less than moenomycin A",fold less than moenomycin A control,300 fold
same,"magnitude of evolved resistance, less than rifampicin",fold less than rifampicin control,"2,500 fold"
